No constants are given. Whether binding was seen depends on the method and setting. Binding seen in cells or lysates may run through a third protein. Some results given as binding are weak or reduced against the parent protein; the word gives no strength. Where a sequence is shown, tags or fusion partners need not be part of it. Each block holds one binder with its values, some of them ahead of it.
Columns and labels:
[1] = biological target: Tmem203 tagged at its N terminus with the V1 fragment of Venus yellow fluorescent protein (UniProt Q8R235); assay: split reporter; Venus YFP fragment complementation assay (PCA; V1 and V2 fragments), HeLa cells cotransfected, Venus fluorescence visualized by microscopy
[2] = biological target: Tmem203 tagged at its N terminus with the V1 fragment of Venus yellow fluorescent protein (UniProt Q8R235); assay: split reporter; Venus YFP fragment complementation assay (PCA; V1 and V2 fragments), HEK293T cells cotransfected, Venus fluorescence detected by flow cytometry (mean fluorescence intensity)
FLAG-STIM1 = FLAG-STIM1 (UniProt Q13586); assay: co-IP; HEK293T cells transfected with the tagged constructs; complexes immunoprecipitated with anti-FLAG-coated beads and blotted for Myc or HA and FLAG

Chains of the proteins cited; added tags and fusions are not shown. Residues count along the entry.
UniProt Q13586, residues 23-685: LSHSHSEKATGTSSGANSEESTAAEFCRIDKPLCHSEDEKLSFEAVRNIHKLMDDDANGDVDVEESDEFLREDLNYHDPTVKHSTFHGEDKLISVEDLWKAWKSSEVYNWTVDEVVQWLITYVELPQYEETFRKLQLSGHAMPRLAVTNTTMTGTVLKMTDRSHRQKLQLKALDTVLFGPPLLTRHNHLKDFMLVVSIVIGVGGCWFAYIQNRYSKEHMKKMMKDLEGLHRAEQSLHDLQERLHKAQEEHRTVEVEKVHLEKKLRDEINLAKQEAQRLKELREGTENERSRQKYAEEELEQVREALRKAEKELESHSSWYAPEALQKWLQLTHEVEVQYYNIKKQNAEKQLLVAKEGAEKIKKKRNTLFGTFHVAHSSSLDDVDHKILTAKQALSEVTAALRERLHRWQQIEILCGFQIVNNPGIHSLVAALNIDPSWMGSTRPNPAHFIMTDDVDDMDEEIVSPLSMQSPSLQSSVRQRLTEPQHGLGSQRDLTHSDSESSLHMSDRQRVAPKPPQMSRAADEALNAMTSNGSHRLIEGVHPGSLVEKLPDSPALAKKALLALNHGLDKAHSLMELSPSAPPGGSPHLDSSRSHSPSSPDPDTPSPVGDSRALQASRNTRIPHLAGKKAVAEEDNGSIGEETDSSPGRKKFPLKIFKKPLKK

binding [1]: binds | binding [2]: binds
B1: Tmem203 tagged at its N terminus with the V1 fragment of Venus yellow fluorescent protein (protein, UniProt Q8R235 1-136)
chain: MLFSLRELVQWLGFATFEIFVHLLALLVFSVLLALRVDGLTPGLSWWNVFVPFFAADGLSTYFTTIVSVRLFQDGEKRLAVLRLFWVLTVLSLKFVFEMLLCQKLVEQTRELWFGLITSPVFILLQLLMIRACRVN

binding (FLAG-STIM1): binds
B2: HA-TMEM203 (protein, UniProt Q8R235 1-136)
chain: B1 chain
